# From PubChem BioAssay AID1240 (Sanford-Burnham Center for Chemical Genomics, 2008)
# Chains of the proteins cited; added tags and fusions are not shown. Lines headed by an entry give the natural chain unless they say otherwise; changes in a name come on top.
# UniProt Q9HD36: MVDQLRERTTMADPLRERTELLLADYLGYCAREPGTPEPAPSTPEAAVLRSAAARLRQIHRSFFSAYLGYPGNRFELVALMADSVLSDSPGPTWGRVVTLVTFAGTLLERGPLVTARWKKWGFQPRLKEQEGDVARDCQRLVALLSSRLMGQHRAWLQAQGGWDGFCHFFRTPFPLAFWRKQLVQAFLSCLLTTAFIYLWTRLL
# What follows is the remainder of the data, with few or none of the strong results.
# Molecular target: Bcl-2-like protein 10 (Homo sapiens) (UniProt Q9HD36)
# Assay: TR3 peptide-Bcl-B binding displacers, biochemical primary FP assay, phenotype converters (AID 1240);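 also: 0% = Bcl-B with tracer peptide and DMSO and 100% = tracer peptide lacking Bcl-B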
# Conditions: GST-Bcl-B / FITC-TR3 peptide fluorescence polarization; stronger effect = higher value; compound at 3.75 mg/L
row,Compound,displacement
1,O=C(/C=C/c1ccccc1)Nc1cccc(F)c1,13.5%
2,O=c1oc2cc(OCc3ccccc3)ccc2c2ccccc12,-13.3%
3,O=C(/C=C/c1ccccc1)Nc1ccc(F)cc1,10.8%
